## Library screen at single concentrations

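Whole-parasite assay of Trypanosoma brucei over 72 hours; the read-out is not stated. Concentration: 30 µM. Direction is inferred from retests: higher values go with stronger inhibition. Values scatter widely below zero; nearly all retest evidence comes from the higher of the two concentrations used. About 64,000 compounds were tested under these conditions; 1.5% (about 940) showed 50% or more at least once.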

Each number is a percent effect as filed. The record does not define 0% and 100%; most values in the screen are far below 50% and negative numbers occur (in some assays of this library far below -100). This is an unselected part of the compounds tested.

- N#Cc1ccc(C(=O)N2CCC(Oc3ccc(C#N)cn3)CC2)cc1 : 3.437%
- Cc1ccc(C2CCCCCN2Cc2cn(C)nc2C)s1 (stereo unspecified) : 18.23%
- CC(C)CN1CCC2(Cc3ccccc3NC2=O)C1 (stereo unspecified) : -5.077%
- O=C(Nc1ccc2c(c1)OCO2)N1CCN(CCn2cccn2)CC1 : -2.02%
- Cn1cc(C(=O)OCC(N)=O)c(-c2ccc(F)cc2F)n1 : -7.315%
- CCNc1ncc(C(=O)NCc2csc(C)n2)cn1 : -33.35%
- CN(C)C(=O)C1CCC2(CCN(C(=O)Nc3ccc(F)cc3)CC2)O1 (stereo unspecified) : -17.58%
- CNc1nc(C(=O)N2CCC3(CCCN(CCOC)C3=O)C2)cs1 (stereo unspecified) : -24.4%
- Cc1c(C2CC(=O)Nc3c2cnn3C(C)(C)C)cnn1C (stereo unspecified) : 1.896%
- COc1ccc(CCC(C)Nc2cccc(SC)c2)cc1 (stereo unspecified) : 0.6708%
- CNc1ccc(CC2CCCN(C(=O)c3c(C)noc3C)C2)nn1 (stereo unspecified) : -15.95%
- CCS(=O)(=O)N(C)C1CCN(C(=O)c2cc(C)cc(C)c2)CC1 : -22.64%
- CN(C)C(=O)C1CN(Cc2ccsc2)Cc2ccnn2C1.O=C(O)C(F)(F)F (stereo unspecified) : -61.07%
- Cc1nc(C)n(CC2CCCN2c2ncnc3ccsc23)n1 (stereo unspecified) : -8.273%
- Cc1nc(C)n(CC2CCCN(Cc3noc(C)n3)C2)n1 (stereo unspecified) : 9.087%
- CC[C@@H]1N(Cc2ccncc2)CCC[C@]12CCC(=O)N2CCOC.O=C(O)C(F)(F)F.O=C(O)C(F)(F)F : -20.85%
- Cn1cc(C(=O)N2CCN(Cc3ccccn3)CC2)ccc1=O : -0.2588%
- O=C(NCCCN1CCc2ccccc2C1)c1ccccc1Br : 18.95%
- Cc1nc2cc(-c3nccn3C)nn2c(N2CCCC(O)C2)c1C.Cl (stereo unspecified) : -11.86%
- Cc1n[nH]c(C)c1NC(=O)CN1CCc2c(nc(C(C)C)n2C)C1 : -15.67%
- CNc1cncc(C2CCCN2S(=O)(=O)c2ccccc2F)n1 (stereo unspecified) : -8.487%
- CCn1cc(S(=O)(=O)NC2CCCC2)cn1 : 9.544%
- CC(C)C(=O)NCc1ccc(-n2cncn2)nc1 : -8.891%
- CN1CCOC(CNCC(=O)NCCCc2ccccc2)C1 (stereo unspecified) : -39.75%
- COCCN1CCC2(CCC1=O)CN(c1ccnc(SC)n1)CCN2C (stereo unspecified) : -3.04%
- CCn1cc(NC(=O)C2CCN(Cc3nc(C)c(C)s3)CC2)cn1 : -25.88%
- CC(C)C(c1cccnc1)N(C)C(=O)Cc1ccc(O)cc1 (stereo unspecified) : -60.83%
- CC(C)CC(=O)N1CCC2(CC1)OCCO2 : -20.12%
- O=C(O)c1ccccc1-c1c(-c2ccccc2)ncn1C[C@H]1CCCN1 : 7.799%
- CC(CNC(=O)N1CCS(=O)(=O)CC1)Cc1cccs1 (stereo unspecified) : 9.749%
- O=C(O)c1cc2c(nc1-c1ccncc1)CCN(Cc1ccoc1)CC2 : -2.437%
- Cc1cc(-c2cnc(C)nc2CN(C)C(=O)c2cc(C3CC3)on2)on1 : -9.473%
- Cc1cc(C(=O)Nc2ccc(OCC3CCOCC3)cc2)[nH]n1 : -4.336%
- COc1ccc(CCC(=O)NCCN2CCC(c3cccs3)CC2)cc1 : 100%
- Cc1cc(CN(C)C(=O)NCc2ccnc(N(C)C)c2)no1 : -8.735%
- COc1ccc(Cl)cc1-c1cc(NC(=O)C2CNC(=O)N2)[nH]n1 (stereo unspecified) : -2.276%
- CC1COc2ccccc2N1C(=O)c1ccnc(-n2cncn2)c1 (stereo unspecified) : -5.125%
- CC(C)N(C)C(=O)c1ccc(CNc2ccncc2Cl)cc1 : -54.38%
- CCC[C@H]1CN(S(=O)(=O)N(C)Cc2ccccc2)C[C@@H]1N : 8.364%
- COCc1noc(C2(c3ccc(F)cc3)CCC2)n1 : -25.04%
- CC(C)Cc1cc(C(=O)NC(C)(C)CN2CCCCCC2)on1 : -13.19%
- O=S(=O)(Cc1ccccc1CN1CC[C@H](CO)[C@H](O)C1)c1ccccc1 : -14.36%
- O=C(NCCCn1cccn1)C1COCC(=O)N1Cc1ccccc1 (stereo unspecified) : -9.174%
- c1cncc(CN(Cc2ccc3c(c2)OCCO3)CC2CCCO2)c1 (stereo unspecified) : -22.43%

Some entries from above, unchanged:

SMILES	percent effect
CC(C)C(c1cccnc1)N(C)C(=O)Cc1ccc(O)cc1 (stereo unspecified)	-60.83%
O=S(=O)(Cc1ccccc1CN1CC[C@H](CO)[C@H](O)C1)c1ccccc1	-14.36%
Cc1nc(C)n(CC2CCCN(Cc3noc(C)n3)C2)n1 (stereo unspecified)	9.087%
O=C(O)c1cc2c(nc1-c1ccncc1)CCN(Cc1ccoc1)CC2	-2.437%
O=C(NCCCn1cccn1)C1COCC(=O)N1Cc1ccccc1 (stereo unspecified)	-9.174%

Source: ChEMBL document CHEMBL3988442, “University of Dundee, Small-Polar-MMV Screening Library” (2021).